We go through 52 molecules from the supplement of paper PMC11060735.

Values joined by “and” are separate entries in the source; they are usually repeats but may differ in a detail not shown here. Identical values can stand only once. Counter-ions that a name gives are not always drawn. ± gives the standard deviation of the averaged measurements. In all, about 1,800 compounds were measured (“GFP- (p16Ink4a-) cell count relative to negative-control wells”: median about 0.99, lowest 2% from about 0.5 on). The list shows a part of the results.

The test relates to mouse p16Ink4a+/- lung fibroblasts (INKBRITE, bleomycin-injured). As to the kind of experiment: GFP- (p16Ink4a-) cell count relative to negative-control wells (fold of vehicle); higher = more p16Ink4a- cells surviving. Particulars: 1 µM; 3 days.
For the molecule `Cc1cccc(CC(=O)N2CCc3c2ccc(-c2cn(C)c4ncnc(N)c24)c3F)n1`, the GFP- was 0.986. Regarding `O=C(O)/C=C/c1ccc(Cn2ccnc2)cc1` [Ozagrel HCl], the GFP- is 1.07 and 0.945. Molecule `Cc1ccc(NC(=O)c2ccc(CN3CCN(C)CC3)cc2)cc1Nc1nc(-c2cccnc2)cs1` [Masitinib] gave a GFP- of 1.09.

`CC1CCN(CC[C@H]2CCCN2S(=O)(=O)c2cccc(O)c2)CC1` registered a GFP- of 0.862. `O=C(Cc1ccc(-c2ccc(OCCN3CCOCC3)cc2)cn1)NCc1ccccc1` had a GFP- of 0.503. With `O=S(=O)(O)CCS` [Mesna], the GFP- turned out to be 1.1.

Regarding `O=C(O)CCCc1c[nH]c2ccccc12` [3-Indolebutyric Acid], the GFP- is 0.92. `Cc1c(N)nc([C@H](CC(N)=O)NC[C@@H](N)C(N)=O)nc1C(=O)N[C@H](C(=O)N[C@@H](C)[C@H](O)[C@@H](C)C(=O)N[C@@H](C(=O)NCCc1nc(-c2nc(C(=O)NCCC[SH](C)C)cs2)cs1)[C@@H](C)O)C(O[C@H]1O[C@H](CO)[C@H](O)[C@@H](O)[C@H]1O[C@H]1O[C@H](CO)[C@@H](O)[C@H](OC(N)=O)[C@@H]1O)c1c[nH]cn1` (some centres not stated) [Bleomycin] came in with a GFP- of 0.745. For `NC(CO)(CO)CO` the value was 0.909; for `CCC(=O)N1CCN(c2ccc(-n3c(=O)ccc4cnc5ccc(-c6cnc7ccccc7c6)cc5c43)cc2C(F)(F)F)CC1` [Torin 1], 0.571. In the case of `Cn1cnc2c1c(=O)[nH]c(=O)n2C` [Theobromine], the GFP- was determined as 1.02.

For the molecule `CCN[C@H]1CN(CCCOC)S(=O)(=O)c2sc(S(N)(=O)=O)cc21` [Brinzolamide], the GFP- amounted to 1.1.

In turn, `CS(=O)(=O)c1ccc([C@@H](O)[C@@H](CO)NC(=O)C(Cl)Cl)cc1` [Thiamphenicol] registered a GFP- of 0.952. Under `CN(C)Cc1ccc(S(=O)(=O)n2ccc(/C=C/C(=O)NO)c2)cc1` [Resminostat] stands 0.684 ± 0.099; under `COc1ccc(-c2cc(=O)c3c(OC)c(OC)c(OC)c(OC)c3o2)cc1` [Tangeretin], 1.09. Take `O[C@@H](COc1cccc2ncccc12)CN1CCN([C@@H]2c3ccccc3[C@@H]3[C@H](c4ccccc42)C3(F)F)CC1` [Zosuquidar 3HCl]: the GFP- was found to be 0.995. Molecule `Cc1cccc(Nc2nc(-c3ccncc3)cs2)c1` registered a GFP- of 0.985. As for `O=C(Nc1ccccc1)Nc1ccc(-c2ccc(C(=O)[C@@H]3CCC[C@H]3C(=O)O)cc2)cc1`, the GFP- stood at 0.992. Turning to `Cc1cccc(C)c1NC(=O)C1CCCCN1C` (configuration not stated) [Mepivacaine], the GFP- is 0.979.

Molecule `CN(C[C@@H]1COCCO1)S(=O)(=O)Nc1ccc2ccc3ncc(-c4cnn(C)c4)cc3c(=O)c2c1` registered a GFP- of 0.813.

The molecule `CCCc1nn(C)c2c(O)nc(-c3cc(S(=O)(=O)N4CCN(C)CC4)ccc3OCC)nc12` [Sildenafil, Sildenafil Citrate] returned a GFP- of 0.849. Molecule `C[C@@H]1COCCN1c1cc(C2(S(C)(=O)=O)CC2)nc(-c2cccc3[nH]ccc23)n1` showed a GFP- of 0.691. Molecule `O=C(O)c1cc(=O)c2ccccc2o1` [Chromocarb] yielded a GFP- of 0.965. `CCN1CCN(C(=O)N[C@@H](C(=O)N[C@@H]2C(=O)N3[C@@H]2SC(C)(C)[C@@H]3C(=O)O)c2ccccc2)C(=O)C1=O` [Piperacillin]: the GFP- came out at 0.951. Consider `CCn1c(N)c(C(=O)NC)c(=O)c2ccc(C#C[C@@](C)(O)COC)nc21`, for which the GFP- was 0.996. In turn, `COc1ccc(NS(=O)(=O)c2sc3ccc(Cl)cc3c2C)cc1N1CCNCC1` had a GFP- of 0.919. Consider `C=C1/C(=C/C=C2\CCC[C@]3(C)[C@@H]([C@H](C)/C=C/[C@@H](C)C(C)C)CC[C@@H]23)C[C@@H](O)C[C@@H]1O` [Doxercalciferol], for which the GFP- stood at 1.41. For `C=C(c1ccc(C(=O)O)cc1)c1cc2c(cc1C)C(C)(C)CCC2(C)C` [Bexarotene] the value was 0.992. Under `COc1ccc(COc2ccc(Cc3cnc(N)nc3N)cc2OC)cc1` stands 0.987. In turn, `Cc1ncc([N+](=O)[O-])n1CCO` [Metronidazole] came in with a GFP- of 1.03. For `COc1cc(C(C)=O)ccc1O` [Apocynin] the value was 1.1; for `O=C(Oc1ccccc1C(=O)O)c1ccccc1O` [Salsalate], 0.999; for `CCOC(=O)[C@H](CCc1ccccc1)N[C@@H](C)C(=O)N1CCC[C@H]1C(=O)O` [Enalapril], 1. Under `Cc1ccccc1CN1C2=NCCN2C(=O)C2=C1CCN(Cc1ccccc1)C2` stands 1.03. The molecule `Cc1cc(Nc2nc(N[C@@H](C)c3ccc(F)cc3)c(C#N)cc2F)n[nH]1` yielded a GFP- of 0.703 ± 0.042. For `CC(C)[C@H]1C(=O)N[C@@H](CCCN=C(N)N)C(=O)NCC(=O)N[C@@H](CC(=O)O)C(=O)N[C@H](Cc2ccccc2)C(=O)N1C` [Cilengitide] the value was 0.887. `Oc1ccc2ccccc2c1SSc1c(O)ccc2ccccc12` had a GFP- of 1.01. For the molecule `Cc1ccc(C(=O)N(CCCN)[C@@H](c2nc3cc(Cl)ccc3c(=O)n2Cc2ccccc2)C(C)C)cc1` [Ispinesib], the GFP- turned out to be 0.733. `O=C(O)CCCc1ccccc1` [Gamma-Phenyl-Butyric Acid] displayed a GFP- of 0.949 ± 0.064. `CC1=CC(=O)NS(=O)(=O)O1` [Acesulfame Potassium] showed a GFP- of 1.06. Take `O=C(O)c1cc(=O)[nH]c(=O)[nH]1` [Orotic Acid]: the GFP- amounted to 1.09. Under `CCOc1cc(CC(=O)N[C@@H](CC(C)C)c2ccccc2N2CCCCC2)ccc1C(=O)O` [Repaglinide] stands 1.05; under `COc1cc(CCC(C)=O)ccc1O` [Vanillylacetone], 0.974. With `N=C(N)Nc1ccc(C(=O)Oc2ccc3cc(C(=N)N)ccc3c2)cc1` [Nafamostat], the GFP- was determined as 1.16.

Regarding `CC(C)(C)C#Cc1cc(N(C(=O)[C@H]2CC[C@H](C)CC2)[C@H]2CC[C@@H](O)CC2)c(C(=O)O)s1` [Lomibuvir], the GFP- is 1.27. Under `O=C(O)c1cc2cccc([N+](=O)[O-])c2[nH]1` stands 0.924; under `O=C1O[C@H]([C@@H](O)CO)C(O)C1O` (some centres not stated) [Sodium ascorbate], 0.999; under `COc1cc2c(Nc3ccc(Br)cc3F)ncnc2cc1OCC1CCN(C)CC1` [Vandetanib], 0.797. Under `COc1cc2nc(N3CCCN(C)CC3)nc(NC3CCN(Cc4ccccc4)CC3)c2cc1OC` stands 0.882 ± 0.057; under `OC[C@H]1O[C@@H](Oc2ccc(O)cc2)[C@H](O)[C@@H](O)[C@@H]1O` [Arbutin], 1.03. Take `CN(C)CCc1c[nH]c2ccc(Cn3cncn3)cc12` [Rizatriptan]: the GFP- came out at 0.924. Molecule `Cc1ccc(S(=O)(=O)NC(=O)NN2CC3CCCC3C2)cc1` (configuration not stated) [Gliclazide] displayed a GFP- of 1.29.
